In article PMC4814116, “Design of Novel Relaxase Substrates Based on Rolling Circle Replicases for Bioconjugation to DNA Nanostructures”:

Key:
[1] = target: T1, TrwCR (N-terminal relaxase domain of TrwC) (UniProt Q47673); assay: SDS-PAGE covalent complex; settings: 5 mM Mg2+, Covalent complex: 15 uM oligo, 37 C 1 h, 5 mM MgCl2, 15 uM EDTA, TrwCR 10 mM Tris pH 7.6, 375 mM NaCl, MobAR 25 mM Tris pH 8.0, 225 mM NaCl, TraIR 10 mM Tris pH 7.6, recombinant protein, residues 1-293, folded or branched …
T1 sequence (looked up): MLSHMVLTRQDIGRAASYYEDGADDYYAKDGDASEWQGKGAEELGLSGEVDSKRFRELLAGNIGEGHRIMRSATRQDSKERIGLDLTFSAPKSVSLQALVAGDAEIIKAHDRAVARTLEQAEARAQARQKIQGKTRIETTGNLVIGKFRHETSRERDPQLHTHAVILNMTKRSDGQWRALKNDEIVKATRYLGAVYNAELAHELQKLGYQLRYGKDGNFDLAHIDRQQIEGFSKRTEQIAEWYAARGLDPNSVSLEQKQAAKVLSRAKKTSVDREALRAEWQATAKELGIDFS

[2] = target: T1, TrwCR (N-terminal relaxase domain of TrwC); assay: gel filtration; settings: EDTA, sole protein-DNA band, Covalent complex: 15 uM oligo, 37 C 1 h, 5 mM MgCl2, 15 uM EDTA, MobAR 25 mM Tris pH 8.0, 225 mM NaCl, TraIR 10 mM Tris pH 7.6, recombinant protein, residues 1-293
[3] = target: T1, TrwCR (N-terminal relaxase domain of TrwC); assay: EMSA; settings: 1 mM EDTA, single shifted band, EC50 same as H(14+14), value not given, EMSA: 50 nM oligo, 10 mM Tris pH 7.6, 100 mM NaCl, RT 30 min, recombinant protein, residues 1-293, label: IRDye800, folded or branched DNA
[4] = target: T2, TraIR (N-terminal domain of TraI) (plasmid RP4) (UniProt Q00191); assay: SDS-PAGE covalent complex; settings: 5 mM Mg2+, no cleavage; Covalent complex: 15 uM oligo, 37 C 1 h, 5 mM MgCl2, 15 uM EDTA; TrwCR 10 mM Tris pH 7.6, 375 mM NaCl; MobAR 25 mM Tris pH 8.0, 225 mM NaCl; TraIR 10 mM Tris pH 7.6; recombinant protein; folded or branched DNA
T2 sequence (looked up, limits assumed): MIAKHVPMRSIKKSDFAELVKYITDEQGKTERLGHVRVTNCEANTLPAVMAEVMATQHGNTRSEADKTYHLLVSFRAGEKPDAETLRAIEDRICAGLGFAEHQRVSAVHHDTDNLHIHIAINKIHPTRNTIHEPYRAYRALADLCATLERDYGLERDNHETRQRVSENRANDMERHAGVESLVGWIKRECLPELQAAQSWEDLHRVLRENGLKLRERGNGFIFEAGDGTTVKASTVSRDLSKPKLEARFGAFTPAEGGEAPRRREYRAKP

[5] = TrwCR 10 mM Tris pH 7.6, 375 mM NaCl, folded or branched …

## AACCGGCTAGGTGCGTATTGTCTATAGCCCACGCACCTAGCCGGTT [R388 H(23+23)]
[1]; not replicated
  binding signal (% covalent complex): 11.2

## AACCGGCTAGGTGCGTATTGTCTATAGCCCAGATCGCACCTAGCCGGTT [R388 H(23+26)]
[1]; not replicated
  binding signal (% covalent complex): 13.5

## ATTGTCTATAGCCCAGATCGCACCGAAAGGTGCG [R388 R(7+27)]
[1]
  binding signal (% covalent complex): 18.3

## CCCAATGCGCGGTGCGTATTGTCTATAGCCCACGCACCGCGCATTGGG [R388 H(24+24)]
[1]; not replicated
  binding signal (% covalent complex): 12.4
[2]; [5]
  binding result: binds

## CCCAATGCGCGGTGCGTATTGTCTATAGCCCAGATCCACCGCACCGCGCATTGGG [R388 H(24+31)]
[2]; no cleavage value in Table 1, TrwCR 10 mM Tris pH 7.6, 375 mM …, folded or branched DNA
  binding result: binds

## CCCAATGCGCGGTGCGTATTGTCTATAGCCCAGATCGCACCGCGCATTGGG [R388 H(24+27)]
[1]; not replicated
  binding signal (% covalent complex): 12
[2]; [5]
  binding result: binds

## CGCACCGAAAGGTGCGTATTGTCTATATTGTCT [R388 W(25+8), IRDye-labelled]
[3]
  binding result: binds

## CTTCACCTATCCTGCCCGGCTGGTGAAG [RP4 HP(14+14)]
[4]
  binding result: no binding

## CTTCACCTATCCTGCCCGGCTGTACCTACGTGAAG [RP4 HP(14+21)]
[4]
  binding result: no binding

For some assays here: A negative result means that nothing was seen under these conditions. Tags and fusion partners may be left off the protein sequences shown. For some assays here: For at least one entry, the source does not settle the construct or the ends of the probe. For some assays here: At least one verdict was read from the data and is not stated in words by the source. For some assays here: The direction of at least one scale is not stated here.
